# The supplement of paper PMC4604168 (melanoma cell lines)
# The other results are listed elsewhere or left out. Single values are uncertain, as repeats are few or missing.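 Cells were imaged in 1,536-well plates, and nuclei stained with an antibody against cleaved PARP were counted against all DNA-stained nuclei to give the apoptosis fraction. Screening doses were chosen to leave most cells alive, and resting and induced cleaved-PARP levels differ strongly between cell lines.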
# Key:
# Assay in all cases: cleaved PARP positive nuclei fraction relative to DMSO control; melanoma cells; higher = more apoptosis
# Details in all cases: library dose: low library concentration; 72 h
# WM115 = tested on: WM115
# WM1716 = tested on: WM1716
# WM1745 = tested on: WM1745
# WM3526 = tested on: WM3526
# WM3619 = tested on: WM3619
# WM451Lu = tested on: WM451Lu
Structure (SMILES),cleaved PARP positive nuclei fraction (WM115),cleaved PARP positive nuclei fraction (WM1716),cleaved PARP positive nuclei fraction (WM1745),cleaved PARP positive nuclei fraction (WM3526),cleaved PARP positive nuclei fraction (WM3619),cleaved PARP positive nuclei fraction (WM451Lu)
"Cn1cnc2c(F)c(Nc3ccc(Br)cc3Cl)c(C(=O)NOCCO)cc21 [selumetinib] + Cn1c(=O)n(-c2ccc(C(C)(C)C#N)cc2)c2c3cc(-c4cnc5ccccc5c4)ccc3ncc21 [NVP-BEZ235] (first compound 0.015 µM, partner dose 0.004 µM)",144%,101%,113%,281%,129%,92.2%
"Cn1cnc2c(F)c(Nc3ccc(Br)cc3Cl)c(C(=O)NOCCO)cc21 [selumetinib] + CCCS(=O)(=O)Nc1ccc(F)c(C(=O)c2c[nH]c3ncc(Cl)cc23)c1F [PLX4720] (first compound 0.015 µM, partner dose 0.08 µM)",128%,84.5%,97.7%,67.3%,92.4%,30.8%
"CCN(CC)CCNC(=O)c1c(C)[nH]c(/C=C2\C(=O)Nc3ccc(F)cc32)c1C [sunitinib] + CS(=O)(=O)CCNCc1ccc(-c2ccc3ncnc(Nc4ccc(OCc5cccc(F)c5)c(Cl)c4)c3c2)o1 [lapatinib] (first compound 0.4 µM, partner dose 0.8 µM)",77.3%,54.8%,100%,192%,66.1%,448%
"CCN(CC)CCNC(=O)c1c(C)[nH]c(/C=C2\C(=O)Nc3ccc(F)cc32)c1C [sunitinib] + C[C@@H](Oc1cc(-c2cnn(C3CCNCC3)c2)cnc1N)c1c(Cl)ccc(F)c1Cl [Crizotinib] (first compound 0.4 µM, partner dose 0.2 µM)",37.2%,52.4%,114%,63.9%,55%,291%
"COc1ccc(C2=N[C@@H](c3ccc(Cl)cc3)[C@@H](c3ccc(Cl)cc3)N2C(=O)N2CCNC(=O)C2)c(OC(C)C)c1 [Nutlin-3] + O=C1NC(=O)/C(=C/c2ccc(-c3ccc(F)cc3O)o2)S1 [AS252424] (first compound 0.1 µM, partner dose 1 µM)",142%,251%,85.8%,53.4%,130%,76.3%
"CS(=O)(=O)c1ccc(C(=O)Nc2ccc(Cl)c(-c3ccccn3)c2)c(Cl)c1 [vismodegib] + CC(=O)c1c(C)c2cnc(Nc3ccc(N4CCNCC4)cn3)nc2n(C2CCCC2)c1=O [palbociclib] (first compound 1 µM, partner dose 0.04 µM)",104%,79.5%,106%,66.8%,84.2%,39.9%
"COc1ccc(C2=N[C@@H](c3ccc(Cl)cc3)[C@@H](c3ccc(Cl)cc3)N2C(=O)N2CCNC(=O)C2)c(OC(C)C)c1 [Nutlin-3] + CC(C)CCN1c2nc(Nc3cc(F)c(O)c(F)c3)ncc2N(C)C(=O)C1C [BID1870] (first compound 0.1 µM, partner dose 0.2 µM)",117%,25.1%,89.5%,70.7%,103%,87.3%
"NC(=O)c1ccc(N(C(N)=O)c2c(F)cccc2F)nc1-c1ccc(F)cc1F + O=C(O)c1ccc(-c2c[nH]c3ncc(-c4ccccc4)cc23)cc1C1CCCC1 [GSK650394] (first compound 0.4 µM, partner dose 0.16 µM)",88.8%,35.7%,89.4%,129%,95.1%,75.1%
"CS(=O)(=O)c1ccc(C(=O)Nc2ccc(Cl)c(-c3ccccn3)c2)c(Cl)c1 [vismodegib] + O=S(=O)(c1ccccc1)N(CC(F)(F)F)c1ccc(C(O)(C(F)(F)F)C(F)(F)F)cc1 [T0901317] (first compound 1 µM, partner dose 1.4 µM)",58.3%,174%,105%,54.7%,105%,43.7%
"Cn1sc(=O)n(Cc2ccccc2)c1=O + Cc1ccc(NC(=O)c2cccc(N(C)C)c2)cc1NC(=O)c1ccc(O)cc1 [ZM336372] (first compound 0.4 µM, partner dose 2 µM)",81.2%,166%,99.2%,353%,106%,55.9%
"COc1ccc(C2=N[C@@H](c3ccc(Cl)cc3)[C@@H](c3ccc(Cl)cc3)N2C(=O)N2CCNC(=O)C2)c(OC(C)C)c1 [Nutlin-3] + COC(=O)c1sccc1S(=O)(=O)Nc1ccc(Nc2ccccc2)cc1OC [GSK0660] (first compound 0.1 µM, partner dose 1 µM)",161%,248%,85.1%,85.5%,197%,44.2%
"CCN(CC)CCNC(=O)c1c(C)[nH]c(/C=C2\C(=O)Nc3ccc(F)cc32)c1C [sunitinib] + Nc1ncn([C@H]2C[C@H](O)[C@@H](CO)O2)c(=O)n1 [decitabine] (first compound 0.4 µM, partner dose 0.1 µM)",252%,74.4%,111%,47.7%,81.3%,75.8%
"C[C@@H](N)c1ccc(C(=O)Nc2ccnc3[nH]ccc23)cc1 + CC1(C)NC(=O)N(c2ccc([N+](=O)[O-])c(C(F)(F)F)c2)C1=O [nilutamide] (first compound 0.4 µM, partner dose 1 µM)",179%,119%,103%,48.3%,95.8%,79.9%
"CN(c1ncccc1CNc1nc(Nc2ccc3c(c2)CC(=O)N3)ncc1C(F)(F)F)S(C)(=O)=O + CCCS(=O)(=O)Nc1ccc(F)c(C(=O)c2c[nH]c3ncc(Cl)cc23)c1F [PLX4720] (first compound 0.08 µM, partner dose 0.08 µM)",50.4%,144%,110%,44.1%,93.4%,95.4%
"C[C@@H](N)c1ccc(C(=O)Nc2ccnc3[nH]ccc23)cc1 + Cc1ccc(NC(=O)c2cccc(N(C)C)c2)cc1NC(=O)c1ccc(O)cc1 [ZM336372] (first compound 0.4 µM, partner dose 2 µM)",48.5%,165%,103%,56.8%,92.3%,38.3%
"Cn1sc(=O)n(Cc2ccccc2)c1=O + COc1ccc(-c2ccc3c(N4CCOCC4)nc(N4C[C@@H](C)O[C@@H](C)C4)nc3n2)cc1CO [KU0063794] (first compound 0.4 µM, partner dose 0.02 µM)",109%,426%,93.1%,84.6%,97.9%,130%
"CCN(CC)CCNC(=O)c1c(C)[nH]c(/C=C2\C(=O)Nc3ccc(F)cc32)c1C [sunitinib] + COc1ccc(-c2ccc3c(N4CCOCC4)nc(N4C[C@@H](C)O[C@@H](C)C4)nc3n2)cc1CO [KU0063794] (first compound 0.4 µM, partner dose 0.02 µM)",168%,81.2%,109%,99.1%,83.8%,67.8%
"Cn1cnc2c(F)c(Nc3ccc(Br)cc3Cl)c(C(=O)NOCCO)cc21 [selumetinib] + COCC[n+]1c2c(n(Cc3cnccn3)c1C)C(=O)c1ccccc1C2=O [YM155] (first compound 0.015 µM, partner dose 0.0004 µM)",127%,36.5%,86.2%,49.1%,113%,56.5%
"CN(c1ncccc1CNc1nc(Nc2ccc3c(c2)CC(=O)N3)ncc1C(F)(F)F)S(C)(=O)=O + C=C(c1ccc(C(=O)O)cc1)c1cc2c(cc1C)C(C)(C)CCC2(C)C [Bexarotene] (first compound 0.08 µM, partner dose 2 µM)",168%,178%,123%,104%,83.3%,132%
"CCCCCCCCc1ccc(CCC(N)(CO)CO)cc1 [fingolimod] + C[C@@H]1CCN(C(=O)CC#N)C[C@@H]1N(C)c1ncnc2[nH]ccc12 [CP690550] (first compound 2 µM, partner dose 1 µM)",36.1%,267%,115%,134%,85.5%,112%
"Cn1sc(=O)n(Cc2ccccc2)c1=O + Nc1ccn([C@@H]2O[C@H](CO)[C@@H](O)C2(F)F)c(=O)n1 [gemcitabine] (first compound 0.4 µM, partner dose 0.0004 µM)",129%,45.9%,121%,318%,122%,95.8%
"Cn1cnc2c(F)c(Nc3ccc(Br)cc3Cl)c(C(=O)NOCCO)cc21 [selumetinib] + COc1ccc(Cl)c(Nc2nc3ccccc3nc2NS(=O)(=O)c2cccc(NC(=O)C(C)(C)N)c2)c1 [XL147] (first compound 0.015 µM, partner dose 0.8 µM)",66%,67.9%,108%,49.6%,121%,30.7%
"Cn1cnc2c(F)c(Nc3ccc(Br)cc3Cl)c(C(=O)NOCCO)cc21 [selumetinib] + NC1(c2ccc(-c3nc4ccn5c(=O)[nH]nc5c4cc3-c3ccccc3)cc2)CCC1 [MK2206] (first compound 0.015 µM, partner dose 0.4 µM)",314%,145%,108%,113%,160%,85.4%
"Cn1cnc2c(F)c(Nc3ccc(Br)cc3Cl)c(C(=O)NOCCO)cc21 [selumetinib] + O=C(O)c1ccc2c(c1)nc(Nc1cccc(Cl)c1)c1ccncc12 [CX4945] (first compound 0.015 µM, partner dose 0.4 µM)",42.4%,32.2%,91.1%,122%,167%,71.5%
"C[C@@H](N)c1ccc(C(=O)Nc2ccnc3[nH]ccc23)cc1 + CC(C)CCN1c2nc(Nc3cc(F)c(O)c(F)c3)ncc2N(C)C(=O)C1C [BID1870] (first compound 0.4 µM, partner dose 0.2 µM)",46.7%,64.6%,98%,73.1%,75.9%,73.5%

# Quoted at random: 2 entries already listed, in no set order.
Structure (SMILES),cleaved PARP positive nuclei fraction (WM115),cleaved PARP positive nuclei fraction (WM1716),cleaved PARP positive nuclei fraction (WM1745),cleaved PARP positive nuclei fraction (WM3526),cleaved PARP positive nuclei fraction (WM3619),cleaved PARP positive nuclei fraction (WM451Lu)
"C[C@@H](N)c1ccc(C(=O)Nc2ccnc3[nH]ccc23)cc1 + CC(C)CCN1c2nc(Nc3cc(F)c(O)c(F)c3)ncc2N(C)C(=O)C1C [BID1870] (first compound 0.4 µM, partner dose 0.2 µM)",46.7%,64.6%,98%,73.1%,75.9%,73.5%
"Cn1cnc2c(F)c(Nc3ccc(Br)cc3Cl)c(C(=O)NOCCO)cc21 [selumetinib] + Cn1c(=O)n(-c2ccc(C(C)(C)C#N)cc2)c2c3cc(-c4cnc5ccccc5c4)ccc3ncc21 [NVP-BEZ235] (first compound 0.015 µM, partner dose 0.004 µM)",144%,101%,113%,281%,129%,92.2%
